Data: EP2703005A1, “Inhibitors of alpha6 Integrin/E-Cadherin Complex” (Università Degli Studi Di Torino, priority 2012, dated 2014)
These are yes or no findings as the source states them, for the method shown. Binding seen in cells or lysates may run through a third protein. Some results given as binding are weak or reduced against the parent protein; the word gives no strength. Where a sequence is shown, tags or fusion partners need not be part of it.

The chains behind the UniProt entries cited, without tags or fusion partners. Residues count along the entry.
UniProt P19338, residues 2-710: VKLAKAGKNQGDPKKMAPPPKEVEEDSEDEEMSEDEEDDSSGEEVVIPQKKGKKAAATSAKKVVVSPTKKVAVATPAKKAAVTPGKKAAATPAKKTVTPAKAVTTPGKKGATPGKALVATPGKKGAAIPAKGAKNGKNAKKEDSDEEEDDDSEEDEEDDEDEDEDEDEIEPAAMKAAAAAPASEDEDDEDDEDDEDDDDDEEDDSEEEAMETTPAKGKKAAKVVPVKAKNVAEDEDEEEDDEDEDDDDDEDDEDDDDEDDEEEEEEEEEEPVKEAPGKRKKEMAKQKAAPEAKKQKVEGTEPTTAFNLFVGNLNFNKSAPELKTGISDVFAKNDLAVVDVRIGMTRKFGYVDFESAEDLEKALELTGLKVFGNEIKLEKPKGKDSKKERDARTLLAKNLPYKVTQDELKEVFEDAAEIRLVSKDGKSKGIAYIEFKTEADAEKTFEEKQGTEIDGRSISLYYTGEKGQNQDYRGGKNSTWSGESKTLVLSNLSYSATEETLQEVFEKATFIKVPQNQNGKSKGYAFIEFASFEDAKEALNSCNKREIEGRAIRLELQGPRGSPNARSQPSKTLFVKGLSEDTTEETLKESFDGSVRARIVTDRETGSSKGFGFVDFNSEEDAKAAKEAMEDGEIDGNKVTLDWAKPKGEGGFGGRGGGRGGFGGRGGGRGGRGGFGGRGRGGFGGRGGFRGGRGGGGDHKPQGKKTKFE
UniProt P35611: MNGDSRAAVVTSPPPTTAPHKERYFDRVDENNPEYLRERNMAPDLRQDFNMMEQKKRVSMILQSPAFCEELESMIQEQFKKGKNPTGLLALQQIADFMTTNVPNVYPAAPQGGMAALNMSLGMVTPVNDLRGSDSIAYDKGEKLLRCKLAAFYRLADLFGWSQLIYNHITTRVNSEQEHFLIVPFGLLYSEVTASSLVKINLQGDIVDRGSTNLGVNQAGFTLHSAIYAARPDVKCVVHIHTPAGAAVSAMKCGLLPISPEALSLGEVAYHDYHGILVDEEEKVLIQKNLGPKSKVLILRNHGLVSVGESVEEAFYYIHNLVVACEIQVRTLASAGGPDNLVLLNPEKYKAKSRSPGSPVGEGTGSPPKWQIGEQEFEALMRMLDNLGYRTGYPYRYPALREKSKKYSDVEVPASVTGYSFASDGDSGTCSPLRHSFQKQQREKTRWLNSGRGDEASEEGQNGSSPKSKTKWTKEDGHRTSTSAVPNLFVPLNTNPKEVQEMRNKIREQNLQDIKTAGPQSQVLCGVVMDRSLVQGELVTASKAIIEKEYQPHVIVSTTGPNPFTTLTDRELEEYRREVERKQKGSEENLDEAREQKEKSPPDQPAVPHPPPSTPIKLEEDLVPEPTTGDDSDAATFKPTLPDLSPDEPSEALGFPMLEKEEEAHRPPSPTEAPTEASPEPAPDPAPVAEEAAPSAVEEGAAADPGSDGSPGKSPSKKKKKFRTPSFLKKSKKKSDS
UniProt P63092, residues 2-394: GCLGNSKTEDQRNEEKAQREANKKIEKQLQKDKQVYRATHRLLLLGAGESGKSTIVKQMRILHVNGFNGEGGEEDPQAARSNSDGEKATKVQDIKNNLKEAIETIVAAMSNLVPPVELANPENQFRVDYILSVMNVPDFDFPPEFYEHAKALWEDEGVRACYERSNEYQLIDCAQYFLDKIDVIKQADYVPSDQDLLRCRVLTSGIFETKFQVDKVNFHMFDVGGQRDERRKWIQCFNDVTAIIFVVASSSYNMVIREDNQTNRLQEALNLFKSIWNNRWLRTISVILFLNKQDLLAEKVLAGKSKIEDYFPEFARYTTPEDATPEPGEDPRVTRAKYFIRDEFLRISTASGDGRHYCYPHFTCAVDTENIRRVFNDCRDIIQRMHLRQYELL

What was measured:
galectin-4 (human) = molecular target: T1, galectin-4 (human) (UniProt P56470); assay: GST pull-down from NCI-H630 lysate (HepG2 lysate as control), LC-MS/MS; MASCOT score 75
T1 sequence (looked up): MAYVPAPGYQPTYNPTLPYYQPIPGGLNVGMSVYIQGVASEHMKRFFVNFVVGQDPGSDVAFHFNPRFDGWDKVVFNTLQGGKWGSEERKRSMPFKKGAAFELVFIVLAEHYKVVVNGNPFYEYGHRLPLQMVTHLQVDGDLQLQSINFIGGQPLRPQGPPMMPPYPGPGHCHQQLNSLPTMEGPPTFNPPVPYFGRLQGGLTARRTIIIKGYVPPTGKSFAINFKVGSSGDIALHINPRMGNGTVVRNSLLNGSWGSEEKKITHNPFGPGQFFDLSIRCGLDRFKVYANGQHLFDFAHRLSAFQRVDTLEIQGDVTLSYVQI

nucleolin (human) = nucleolin (human) (UniProt P19338); assay: GST pull-down from NCI-H630 lysate (HepG2 lysate as control), LC-MS/MS; MASCOT score 236
α6 integrin (human) = molecular target: T2, α6 integrin (human) (UniProt P23229); assay: GST pull-down from NCI-H630 lysate (HepG2 lysate as control), LC-MS/MS; MASCOT score 98
T2 sequence: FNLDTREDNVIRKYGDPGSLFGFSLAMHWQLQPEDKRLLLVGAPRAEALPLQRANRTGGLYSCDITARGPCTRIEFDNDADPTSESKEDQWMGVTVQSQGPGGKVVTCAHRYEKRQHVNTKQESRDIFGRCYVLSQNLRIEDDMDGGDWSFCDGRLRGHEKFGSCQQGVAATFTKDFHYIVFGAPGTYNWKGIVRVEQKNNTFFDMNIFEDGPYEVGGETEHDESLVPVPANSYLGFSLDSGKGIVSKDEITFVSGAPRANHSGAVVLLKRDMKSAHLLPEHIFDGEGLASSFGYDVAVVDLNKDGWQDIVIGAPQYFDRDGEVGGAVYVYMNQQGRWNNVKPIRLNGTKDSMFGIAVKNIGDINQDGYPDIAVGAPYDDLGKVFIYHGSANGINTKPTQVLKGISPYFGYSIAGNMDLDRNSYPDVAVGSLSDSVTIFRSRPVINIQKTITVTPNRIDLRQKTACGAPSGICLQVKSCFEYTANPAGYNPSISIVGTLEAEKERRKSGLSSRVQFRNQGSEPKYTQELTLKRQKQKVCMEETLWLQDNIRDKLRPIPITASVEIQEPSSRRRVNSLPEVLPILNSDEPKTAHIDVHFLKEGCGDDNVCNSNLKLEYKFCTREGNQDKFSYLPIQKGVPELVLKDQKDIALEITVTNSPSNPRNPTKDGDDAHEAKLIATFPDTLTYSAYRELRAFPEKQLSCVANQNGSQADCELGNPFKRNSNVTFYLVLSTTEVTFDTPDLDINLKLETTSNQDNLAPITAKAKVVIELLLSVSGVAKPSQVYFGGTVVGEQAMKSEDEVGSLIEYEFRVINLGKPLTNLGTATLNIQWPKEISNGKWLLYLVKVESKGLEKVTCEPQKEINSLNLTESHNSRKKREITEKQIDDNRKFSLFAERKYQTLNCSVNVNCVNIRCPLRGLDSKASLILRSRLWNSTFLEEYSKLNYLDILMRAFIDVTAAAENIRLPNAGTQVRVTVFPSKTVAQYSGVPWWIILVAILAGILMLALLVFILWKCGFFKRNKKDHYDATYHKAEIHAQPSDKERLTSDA

α-adducin (human) = α-adducin (human) (UniProt P35611); assay: as above
[1] = molecular target: G nucleotide-binding protein (human) (UniProt P63092); assay: as above
myosin Id (human) = molecular target: T3, myosin Id (human) (UniProt O94832); assay: GST pull-down from NCI-H630 lysate (HepG2 lysate as control), LC-MS/MS; MASCOT score 1804
T3 sequence (looked up): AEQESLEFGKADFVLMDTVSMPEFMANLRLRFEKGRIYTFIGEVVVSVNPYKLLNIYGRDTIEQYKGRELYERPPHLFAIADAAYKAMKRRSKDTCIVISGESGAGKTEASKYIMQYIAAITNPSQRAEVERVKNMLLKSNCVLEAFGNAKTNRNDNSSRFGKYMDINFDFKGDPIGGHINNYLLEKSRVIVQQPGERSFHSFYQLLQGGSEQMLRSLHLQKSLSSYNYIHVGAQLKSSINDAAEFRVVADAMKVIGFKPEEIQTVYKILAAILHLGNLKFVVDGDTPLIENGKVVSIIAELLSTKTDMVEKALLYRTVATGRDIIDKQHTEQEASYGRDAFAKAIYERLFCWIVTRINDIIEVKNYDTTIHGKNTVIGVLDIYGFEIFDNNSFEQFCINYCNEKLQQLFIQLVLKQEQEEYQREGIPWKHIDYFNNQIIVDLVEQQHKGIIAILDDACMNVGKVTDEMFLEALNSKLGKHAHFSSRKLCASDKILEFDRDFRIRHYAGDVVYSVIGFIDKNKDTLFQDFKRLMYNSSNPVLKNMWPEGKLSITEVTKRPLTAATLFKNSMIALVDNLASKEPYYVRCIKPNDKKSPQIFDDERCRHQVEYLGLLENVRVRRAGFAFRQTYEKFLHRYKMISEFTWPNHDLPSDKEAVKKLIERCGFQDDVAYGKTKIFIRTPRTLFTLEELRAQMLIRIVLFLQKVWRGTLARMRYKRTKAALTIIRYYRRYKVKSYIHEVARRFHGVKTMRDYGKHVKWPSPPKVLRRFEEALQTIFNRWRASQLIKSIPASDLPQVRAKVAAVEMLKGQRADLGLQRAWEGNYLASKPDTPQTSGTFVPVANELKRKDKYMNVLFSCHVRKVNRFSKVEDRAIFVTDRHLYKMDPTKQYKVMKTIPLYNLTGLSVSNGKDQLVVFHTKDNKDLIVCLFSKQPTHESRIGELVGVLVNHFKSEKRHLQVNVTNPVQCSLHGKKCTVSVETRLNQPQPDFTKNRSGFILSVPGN

Measured: binding

B1: …-GST (peptide, not shown: a dimerising Fc or GST)
chain: CGIYRLRSC
binds: all assays above
